Laboratory results published in the supplement of paper PMC8256030.
Values joined by “and” are separate entries in the source; they are usually repeats but may differ in a detail not shown here. Equal values may be shown once. This is one part of the list. Single values are uncertain here, since repeats match poorly.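 HEK293T cells were given each compound shortly before transfection with a reporter in which red mCherry is followed by the SARS-CoV-2 frameshift element and then GFP in the −1 frame, so GFP appears only after frameshifting.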

Tested on: HEK293T
Assay: percent viability (nuclei count) relative to control; higher = more viable cells
Details: 10 µM; 24 h

First: CCCCc1oc2ccc(NS(C)(=O)=O)cc2c1C(=O)c1ccc(OCCCN(CCCC)CCCC)cc1 [dronedarone]
Second: CN(C(=O)CCCOc1ccc2[nH]c(=O)ccc2c1)C1CCCCC1 [cilostamide]
The percent viability of the first is higher: 453% for the first, 181% for the second.

Going from CC1(C)NC(=O)N(c2ccc([N+](=O)[O-])c(C(F)(F)F)c2)C1=O [nilutamide] to Nc1nc2ccc(OC(F)(F)F)cc2s1, the percent viability rises from 262% to 306%.

Going from Cn1c(=O)c2c(ncn2C)n(C)c1=O to CN(C)CCN1C(=O)c2ccccc2N(C)c2ccccc21 [dibenzepin], the percent viability falls from 380% to 260%.

Compared with CO[C@@]12[C@H](COC(N)=O)C3=C(C(=O)C(C)=C(N)C3=O)N1C[C@@H]1N[C@@H]12 [Mitomycin C], C=CCn1c(=O)n([C@@H]2O[C@H](CO)[C@@H](O)[C@H]2O)c2nc(N)[nH]c(=O)c21 [loxoribine] is lower in percent viability: 253% for the first, 99.6% for the second.

Going from CN1CCN(C(c2ccccc2)c2ccccc2)CC1 [cyclizine] to CN1CCN2c3ccccc3Cc3ccccc3C2C1 (stereo not given), the percent viability rises from 135% to 400%.

First: C[C@]12CCC(=O)C=C1C=C[C@@H]1[C@@H]2CC[C@@]2(C)[C@H]1CC[C@@]21CCC(=O)O1 [Canrenone]
Second: CC(=O)[C@@]1(O)CC[C@H]2[C@@H]3C=C(Cl)C4=CC(=O)CC[C@]4(C)[C@H]3CC[C@@]21C [chlormadinone]
The percent viability of the first is lower: 228% for the first, 234% for the second.

First: CC(C)[C@H](NC(=O)[C@H](CC(=O)O)NC(=O)[C@H](CCCCN)NC(=O)[C@@H](N)CCCN=C(N)N)C(=O)N[C@@H](Cc1ccc(O)cc1)C(=O)O
Second: CCC(C)CCCCC(=O)NC(CCN)C(=O)NC(C(=O)NC(CCN)C(=O)NC1CCNC(=O)C(C(C)O)NC(=O)C(CCN)NC(=O)C(CCN)NC(=O)C(CC(C)C)NC(=O)C(Cc2ccccc2)NC(=O)C(CCN)NC1=O)C(C)O (stereo not given)
The percent viability of the first is higher: 243% for the first, 148% for the second.

Compared with N=C(N)NCCN1CCCCCCC1 [guanethidine], O=C(/C=C/c1ccc2c(c1)OCO2)N1CCCCC1 [ilepcimide] is lower in percent viability: 255% for the first, 66% for the second.

Compared with C[C@H]1[C@H](OC(=O)CCC(=O)O)O[C@@H]2O[C@@]3(C)CC[C@H]4[C@H](C)CC[C@@H]1[C@@]24OO3, CO[C@@H]1[C@H](OC(=O)/C=C/C=C/C=C/C=C/C(=O)O)CC[C@]2(CO2)[C@H]1[C@@]1(C)O[C@@H]1CC=C(C)C [Fumagillin] is higher in percent viability: 21.3% for the first, 306% for the second.

Going from CC(C)c1[nH]c2ccccc2c1C(=O)c1cccnc1 [nictindole] to CC(CNC1CCCCC1)OC(=O)c1ccccc1 (stereo not given) [hexylcaine], the percent viability falls from 187% to 48.7%.

Going from CCCCCCCCCCCCCCCCCC(=O)OC[C@H](COP(=O)(O)OC[C@H](N)C(=O)O)OC(=O)CCCCCCCCCCCCCCCCC [Phosphatidylserine] to CC(=O)OCC(COC(C)=O)OC(C)=O [triacetin], the percent viability falls from 253% to 86.9%.

Going from C[C@@H]1C[C@H]2[C@@H]3C[C@H](F)C4=CC(=O)C(Cl)=C[C@]4(C)[C@@]3(F)[C@@H](O)C[C@]2(C)[C@@]1(O)C(=O)CO [halometasone] to CC(=O)OCC(=O)[C@@]1(O)CC[C@H]2[C@@H]3CCC4=CC(=O)CC[C@]4(C)C3=CC[C@@]21C [anecortave], the percent viability rises from 153% to 336%.

First: Cc1c(C)c2c(c(C)c1O)CC[C@@](C)(CCC[C@H](C)CCC[C@H](C)CCCC(C)C)O2
Second: CCOC(=O)/C=C/[C@H](C[C@@H]1CCNC1=O)NC(=O)[C@@H](CC(=O)[C@@H](NC(=O)c1cc(C)on1)C(C)C)Cc1ccc(F)cc1 [rupintrivir]
The percent viability of the first is higher: 248% for the first, 152% for the second.

First: CN(C)CCOC(=O)C(c1ccccc1)C1(O)CCCC1 (stereo not given) [cyclopentolate]
Second: O=C(O)c1ccccc1OP(=O)(O)O [fosfosal]
The percent viability of the first is lower: 143% for the first, 351% for the second.

Compared with Cc1cccn2c(=O)c(-c3nnn[nH]3)cnc12 [pemirolast], CN1CCOC(c2ccccc2)c2ccccc2C1 (stereo not given) [nefopam] is higher in percent viability: 69.5% for the first, 148% for the second.

First: CC(=O)N[C@H]1[C@H]([C@H](O)[C@H](O)CO)OC(C(=O)O)=C[C@@H]1NC(=N)N [zanamivir]
Second: O=C(O)Cn1cc(I)c(=O)c(I)c1 [diodone]
The percent viability of the first is higher: 237% for the first, 110% for the second.

Going from c1ccc(C2CN3CCSC3=N2)cc1 (stereo not given) to Clc1cc(-c2ccccc2)ccc1OCCCN1CCOCC1 [chlordimorine], the percent viability rises from 14.3% to 110%.

Going from O=C1c2cc(Cl)ccc2OC2CCON12 (stereo not given) [seclazone] to Cc1oc2nc3c(c(NC(=O)CN4CCCC4=O)c2c1C)CCCC3 [coluracetam], the percent viability falls from 270% to 227%.

Work on C=CC[C@@H]1/C=C(\C)C[C@H](C)C[C@H](OC)[C@H]2O[C@@](O)(C(=O)C(=O)N3CCCC[C@H]3C(=O)O[C@H](/C(C)=C/[C@@H]3CC[C@@H](O)[C@H](OC)C3)[C@H](C)[C@@H](O)CC1=O)[C@H](C)C[C@@H]2OC yielded a percent viability of 104%.

For COc1ccnc(C[S+]([O-])c2nc3cc(OC(F)F)ccc3[nH]2)c1OC (stereo not given) [Pantoprazole], the percent viability was 214% and 116%.
In the case of O=C1CC2(CCCC2)CC(=O)N1CCCCN1CCN(c2ncccn2)CC1 [buspirone], the percent viability is reported as 210% and 111%.
CCCOc1ccc2[nH]c(NC(=O)OC)nc2c1 [oxibendazole] was tested, and the percent viability was 49.9% and 52.7%.
